Values of other authors as cited in patent US20240415801A1, “Methods and Compositions for Treating Fibroids” (Lundquist Institute for Biomedical Innovation at …, priority 2023, published 2024).
At least one structure is not confirmed: it was looked up by name or label, or the drawing left a doubt.

Key:
[1] = test system: primary fibroid smooth muscle cells; settings: ref [93]; cited from earlier work
[2] = test system: fibroids; settings: ref [22]; cited from earlier work

COc1ccc(/C=C/C(=O)Nc2ccccc2C(=O)O)cc1OC [Tranilast]
miR-200c expression [1]: induction | p65 nuclear translocation [1]: reduces | cellular apoptosis [2]: increasing | collagen expression and cell proliferation [2]: inhibiting | tumor size [2]: reducing
